## Screening data, single-dose tests

The values are deposited in ChEMBL (CHEMBL3988442, “University of Dundee, Small-Polar-MMV Screening Library” (2021)).

T. brucei: 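Whole-parasite assay of Trypanosoma brucei over 72 hours; the read-out is not stated. Concentration: 30 µM. Higher reads as stronger inhibition (inferred: compounds with an IC50 in retests scored well above the rest). Values scatter widely below zero; nearly all retest evidence comes from the higher of the two concentrations used. Of about 64,000 compounds tested this way, about 940 (1.5%) reached 50% or more in at least one test.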
Leishmania in macrophages: 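Cell assay of Leishmania donovani living inside macrophages; the read-out is not stated. Tested at 30 µM. The record gives no direction; compounds that gave an IC50 in retests scored well above the rest, so higher reads as stronger inhibition. Of about 69,000 compounds tested this way, about 1,000 (1.5%) reached 50% or more in at least one test.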

Each number is a percent effect as filed.
How 0% and 100% were set is not recorded. Most values in the screen are low, and negative values occur.
This is an unselected part of the compounds tested.
Two or more numbers in one place are separate tests of the same structure; such repeats can differ widely.
A dash means the value is not listed here; it may have been measured.

| Compound | T. brucei | Leishmania in macrophages |
|---|---|---|
| `O=C(O)C(F)(F)F.O=C(O)C(F)(F)F.O=C(O)C(F)(F)F.[H][C@@]12CN(Cc3cccnc3)C[C@]1([H])[C@@H](OC)CCN2Cc1c(C)noc1C` | -44.55% | 8.605% |
| `Cc1nnc(NCc2ccc(N3CCC(CO)CC3)cc2)c(C#N)c1C` | 12.24% | 8.032% |
| `O=C(C1CCCN(c2nc3ccccc3cc2CO)C1)N1CCCC1` (centres undefined) | -112.8% | 22.11% |
| `Cc1cncc(C(=O)N2CCCCC2c2nc(C)cs2)c1` (centres undefined) | 2.252% | -6.825% |
| `COc1ccc(CN(C)C(=O)Cc2c(C)nn(C)c2C)cc1F` | - | 14.35% |
| `O=C(O)C(F)(F)F.[H][C@@]12COC[C@]1(COCc1cccnc1)CN(C(=O)Cc1cccs1)C2` | -61.29% | 4.896% and -1.19% |
| `Cc1nc(CN(C)C2CCCN(c3cccnn3)C2)nc2ccccc12` (centres undefined) | 22.36% | -6.366% |
| `Cc1cc(NS(=O)(=O)c2ccc(Cl)s2)ccc1-n1cccc1C(=O)O` | 16.65% | 12.86% |
| `Cc1nn(C)cc1S(=O)(=O)NCC(C)Cn1cc(Cl)cn1` (centres undefined) | -50.98% | -0.5218% |
| `Cc1nn(C)c(N2CCOCC2)c1CNC(C(N)=O)c1ccccc1` (centres undefined) | - | 35.57% |
| `CC1c2ncc(Cn3cccn3)n2CCN1Cc1ccccn1.O=C(O)C(F)(F)F.O=C(O)C(F)(F)F` (centres undefined) | -1.576% | -3.718% |
| `COCc1cnc2n1CCN(C1CCCC1)C2C.O=C(O)C(F)(F)F` (centres undefined) | -21.71% | 6.956% |
| `CCc1ncc(C(=O)NCCNC(=O)Cc2ccc(F)cc2)s1` | 24.38% | 20.93% |
| `CCn1cc(C2CCN(Cc3ccnc(N(C)C)c3)CC2)cn1` | -19.05% | 27.11% |
| `CCC[C@H]1CN(C(=O)CCn2ccccc2=O)C[C@@H]1NS(C)(=O)=O` | -13.29% | 14.99% |
| `CC(NC(=O)N1CCC(c2ccccc2)CC1)c1nncn1C` (centres undefined) | 12.2% | 25.4% |
| `Cc1cc(C2CCCN2C(=O)c2cnn(C)c2)on1` (centres undefined) | -13.94% | 0.9509% |
| `Cc1ccc(CN2CCNC(=O)C2CC(=O)NCc2n[nH]c(C)n2)cc1` (centres undefined) | -16.17% | -8.925% |
| `Cc1nn(C)c(Oc2ccccc2)c1CNC1CCOc2ccccc21` (centres undefined) | -27.3% | 7.56% |
| `O=C(C1CCC2(CCN(CC3CCOCC3)CC2)O1)N1CCCCO1.O=C(O)C(F)(F)F` (centres undefined) | -11.92% | 8.314% |
| `O=C(O)C(F)(F)F.O=C(O)C(F)(F)F.O=C(O)C(F)(F)F.c1ccc(NCc2cn3c(n2)CN(Cc2cccnc2)CC3)nc1` | - | -8.298% |
| `Cc1cc(NC(=O)CN2CCCC2c2noc(C3CC3)n2)on1` (centres undefined) | -37.83% | 22.45% |
| `O=C(O)C(F)(F)F.O=C1COC2(COCCN(Cc3ccsc3)C2)CN1c1ccc(F)cc1` (centres undefined) | -12.08% | -14.92% |
| `Cc1noc(C)c1NS(=O)(=O)c1cc(Cl)c(Cl)c(C(=O)O)c1` | -0.4343% | -2.939% |
| `CCCc1nc(CN(CC)Cc2ccoc2)no1` | 9.977% | -22.39% |
| `CC(C)(C)OC(=O)N1CCN(c2cccnc2)CC1C(=O)O` (centres undefined) | - | 5.854% |
| `Cc1ccc(CN2CCC3(CCN(Cc4ccncc4)CC3)CC2)cc1` | 16.38% | 75.36% |
| `CSC1(CNC(=O)NC(C)Cc2cccc(F)c2)CCOCC1` (centres undefined) | -21.18% | -2.069% |
| `O=c1c(CN2CCOCC2)coc2ccc(Cl)cc12` | -42.67% | -3.753% |
| `CS(=O)(=O)NC1CCN(C(=O)c2cnc(-c3cccnc3)nc2)CC1` | 1.266% | 19.88% |
| `CN(CCn1ccc2ccccc21)C(=O)CS(C)(=O)=O` | -29.51% | 18.9% |
| `CCN1CCN(CC(C)(O)c2cccc(C(F)(F)F)c2)CC1` (centres undefined) | 1.062% | 25.39% |
| `Cc1cc(CNCc2c(C)nn(C)c2N2CCOCC2)no1` | -7.75% | -5.034% |
| `CN1CCN(C(=O)NC2CC2)Cc2cccnc21.O=C(O)C(F)(F)F` | -11.89% | 18.63% |
| `Cc1csc2c(N3CCNC(C(=O)Nc4ccc(F)cc4)C3)ncnc12` (centres undefined) | 72.13% | 6.189% |
| `Cc1cccc(CNC(=O)NCC2CCN(Cc3ncc[nH]3)C2)c1` (centres undefined) | -34.41% | 16.46% |
| `Cc1ccc(C(C)(O)CNC(=O)c2scnc2C)o1` (centres undefined) | -15.15% | 23.23% |
| `CCn1nc(CC(C)C)cc1C(=O)N1CCCOC(CN2CCCC2)C1` (centres undefined) | 13.71% | 15.14% |
| `CC(C)NC(=O)c1nnn(-c2cccc(C(F)(F)F)c2)c1N` | 31.32% | 22.9% |
| `Cc1nn(C)cc1-c1cc(C(F)(F)F)nc(NC2CCN(C)CC2)n1` | -15.79% | 7.809% |
| `CCN(Cc1nc(C2CC2)no1)Cc1ccc(C#N)cc1F` | -10.87% | -4.071% |
| `Cc1ccc(NC2(C(=O)NCCCN)CCCC2)cc1` | -12.51% | 11.33% |
| `CCCc1noc(C2CCN(C(=O)C3CCCO3)CC2)n1` (centres undefined) | -17.88% | 16.47% |
| `Cc1cnn(CCNCc2ccc(OCc3cccnc3)cc2)c1` | 30.85% | 27.42% |
| `CC(C)c1nn(C)c(N(C)C)c1CNCC(O)c1ccccc1F` (centres undefined) | -15.15% | -0.1534% |
| `[H][C@@]12CS(=O)(=O)C[C@]1([H])N(Cc1nc3ccccc3[nH]1)CCN2C(=O)N(C)C` | -150.4% | -28.44% |
| `Cn1cnc(S(=O)(=O)NCCC(O)c2ccc3c(c2)OCO3)c1` (centres undefined) | -24.05% | -27.83% |
| `O=C(CCC1CCCCC1)NCc1nnc2ccccn12` | -37.9% | 18.32% |
| `Cc1csc(C2CCCCN2C(=O)c2cc(C)n(C)n2)n1` (centres undefined) | - | 9.401% |
| `Cc1ccc(NCc2ccc(C#N)cc2)cc1-n1cnnn1` | -49.06% | -13.13% |
| `CN(C)C(C(=O)NCCS(=O)(=O)N(C)C)c1cccc(F)c1` (centres undefined) | -32.79% | 2.187% |
| `O=C(NC1(c2nnn(CC3CCCO3)n2)CCCC1)c1ccccc1` (centres undefined) | -19.43% | 9.673% |
| `CCOC(C)c1noc(CN2CCNCC2)n1` (centres undefined) | 6.97% | 10.48% |
| `[H][C@@]12C[C@H](C(=O)N(C)C)[C@@]([H])(CN(c3ncc(C)cn3)C1)O2` | 21.63% | 18.63% |
| `CN(CC(=O)NCC(=O)Nc1ccc(F)cc1)Cc1cccs1` | -30.84% | 45.24% |
| `O=C(O)C(F)(F)F.[H][C@@]12CN(Cc3ccc(F)cc3)C[C@]1([H])[C@@H]2CC(=O)N1CCCC1` | -19.21% | 7.303% |
| `CCOc1ccc(NC(=O)N2CCOC(C(N)=O)C2)cc1C` (centres undefined) | -43.87% | 19.27% |
| `COCCN1CCC(c2nc3c([nH]2)CCCNC3=O)CC1` | 29.48% | 4.061% |
| `CCOC(=O)C1(Cc2cccc(Cl)c2)CCCN(Cc2ncc[nH]2)C1` (centres undefined) | - | 15.05% |
| `N#CCCN(CC1CC1)Cn1cc(Cl)cn1` | -20.64% | -6.017% |
| `CCN(C)c1ncnc2c1CCN(C(=O)c1cnccn1)CC2.O=C(O)C(F)(F)F` | -39.91% | 16.93% |
| `CCS(=O)(=O)N1CCC(c2nccn2Cc2ccncc2)CC1` | -26.7% | 3.051% |
| `CS(=O)(=O)c1ccc(CNC[C@H]2COCc3nc4ccccc4n32)cc1` | -5.257% | 0.9221% |
| `Cn1nnc2cc(C(=O)NS(=O)(=O)Cc3ccc(F)cc3)ccc21` | -12.92% | 15.74% |
| `Cc1nc(C)n(CC2CCCN(Cc3cn4c(C)cccc4n3)C2)n1` (centres undefined) | 14.95% | 43.44% |
| `O=C(O)C(F)(F)F.O=C(O)C(F)(F)F.[H][C@@]12CN(Cc3csc(C)n3)C[C@H](C(=O)NCCOC)[C@]1([H])CCO2` | -11.19% | 11.82% |
| `COCCN(CCOC)C(=O)c1ccoc1C` | -9.591% | 12.81% |

The last 8 entries again:

Result for N#CCCN(CC1CC1)Cn1cc(Cl)cn1 was T. brucei: -20.64%; Leishmania in macrophages: -6.017%.
Result for CCN(C)c1ncnc2c1CCN(C(=O)c1cnccn1)CC2.O=C(O)C(F)(F)F was T. brucei: -39.91%; Leishmania in macrophages: 16.93%.
Result for CCS(=O)(=O)N1CCC(c2nccn2Cc2ccncc2)CC1 was T. brucei: -26.7%; Leishmania in macrophages: 3.051%.
Result for CS(=O)(=O)c1ccc(CNC[C@H]2COCc3nc4ccccc4n32)cc1 was T. brucei: -5.257%; Leishmania in macrophages: 0.9221%.
Result for Cn1nnc2cc(C(=O)NS(=O)(=O)Cc3ccc(F)cc3)ccc21 was T. brucei: -12.92%; Leishmania in macrophages: 15.74%.
Result for Cc1nc(C)n(CC2CCCN(Cc3cn4c(C)cccc4n3)C2)n1 (centres undefined) was T. brucei: 14.95%; Leishmania in macrophages: 43.44%.
Result for O=C(O)C(F)(F)F.O=C(O)C(F)(F)F.[H][C@@]12CN(Cc3csc(C)n3)C[C@H](C(=O)NCCOC)[C@]1([H])CCO2 was T. brucei: -11.19%; Leishmania in macrophages: 11.82%.
Result for COCCN(CCOC)C(=O)c1ccoc1C was T. brucei: -9.591%; Leishmania in macrophages: 12.81%.